# This is one part of the list. This data set is noisy: repeats of one test often differ as much as different tests do.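 ReNCell VM, a human fetal ventral-midbrain neural progenitor line, was differentiated without mitogens. Blinded raters scored images stained for doublecortin (early neurons) or tyrosine hydroxylase (dopaminergic neurons) against untreated wells (0 = no change). Scores were averaged across repeats and both raters, and compounds averaging 2 or more were selected as hits for retesting.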
# Key:
# ReNCell VM [1] = assay: neuronal differentiation score (DCX+ cell fraction vs untreated, manual image score) (score (-3 to 3)); higher = more neuronal differentiation; details: 2 uM, 2 weeks
# ReNCell VM [2] = assay: dopaminergic neuron differentiation score (TH+ cell fraction vs untreated, manual image score) (score (0 to 3)); higher = more TH+ dopaminergic neuron differentiation; details: 2 uM, 4 weeks, BDNF 10 ng/ml + GDNF 10 ng/ml
compound,measurement,setting,value
C=C1C[C@@H]2[C@H](CC[C@]3(C)C(=O)CC[C@@H]23)[C@@]2(C)C=CC(=O)C=C12 [Exemestane],neuronal differentiation score,ReNCell VM [1]; library: Prestwick,inactive: 0
same,dopaminergic neuron differentiation score,ReNCell VM [2]; library: Prestwick,inactive: 0
NCC(CS(=O)(=O)O)c1ccc(Cl)cc1 (stereo unspecified) [Saclofen],neuronal differentiation score,ReNCell VM [1]; library: Tocriscreen,inactive: 0
same,dopaminergic neuron differentiation score,ReNCell VM [2]; library: Tocriscreen,inactive: 0
c1ccc2c(c1)Nc1ccccc1S2,neuronal differentiation score,ReNCell VM [1]; library: Spectrum,inactive: 0
same,dopaminergic neuron differentiation score,ReNCell VM [2]; library: Spectrum,inactive: 0
C[C@]12CC[C@H]3[C@@H](CCC4=CC(=O)CC[C@@]43C)[C@@H]1CC[C@@H]2O,neuronal differentiation score,ReNCell VM [1]; library: Spectrum,inactive: 0
same,dopaminergic neuron differentiation score,ReNCell VM [2]; library: Spectrum,inactive: 0
Cc1cccc(C)c1NC(=O)CN1CCCC1=O [Nefiracetam],neuronal differentiation score,ReNCell VM [1]; library: LOPAC,inactive: 0
same,dopaminergic neuron differentiation score,ReNCell VM [2]; library: LOPAC,inactive: 0
C[N+](C)(C)CCCCCCCCCC[N+](C)(C)C [Decamethonium dibromide],neuronal differentiation score,ReNCell VM [1]; library: LOPAC,inactive: 0
same,dopaminergic neuron differentiation score,ReNCell VM [2]; library: LOPAC,inactive: 0
C[C@@H]1C[C@H](O)[C@@]2(O)[C@]13CC(=O)OC[C@@]2(C)[C@@](C)(O)C(=O)C3,neuronal differentiation score,ReNCell VM [1]; library: Spectrum,inactive: 0
same,dopaminergic neuron differentiation score,ReNCell VM [2]; library: Spectrum,inactive: 0
N[C@@]1(C(=O)O)CC[C@@H](C(=O)O)C1,neuronal differentiation score,ReNCell VM [1]; library: Tocriscreen,inactive: 0
same,dopaminergic neuron differentiation score,ReNCell VM [2]; library: Tocriscreen,inactive: 0
"C=CCN1CC[C@]2(C)c3cc(O)ccc3C[C@H]1C2C (single isomer, unassigned; (+))",neuronal differentiation score,ReNCell VM [1]; library: Tocriscreen,inactive: 0
same,dopaminergic neuron differentiation score,ReNCell VM [2]; library: Tocriscreen,inactive: 0
C[N+]1(C)[C@@H]2CC[C@H]1C[C@@H](OC(=O)C(CO)c1ccccc1)C2 (stereo partly specified) [Atropine methyl nitrate],neuronal differentiation score,ReNCell VM [1]; library: LOPAC,inactive: 0
same,dopaminergic neuron differentiation score,ReNCell VM [2]; library: LOPAC,inactive: 0
Oc1ccc(Cl)cc1,neuronal differentiation score,ReNCell VM [1]; library: Spectrum,inactive: 0
same,dopaminergic neuron differentiation score,ReNCell VM [2]; library: Spectrum,inactive: 0
COC1=CC(=O)O[C@@H](/C=C/c2ccccc2)C1,neuronal differentiation score,ReNCell VM [1]; library: Spectrum,inactive: 0
same,dopaminergic neuron differentiation score,ReNCell VM [2]; library: Spectrum,inactive: 0
COP(=O)(OC)OC=C(Cl)Cl,neuronal differentiation score,ReNCell VM [1]; library: Spectrum,inactive: 0
same,dopaminergic neuron differentiation score,ReNCell VM [2]; library: Spectrum,inactive: 0

# Part of the list above, with bars between the fields:
compound | measurement | setting | value
Oc1ccc(Cl)cc1 | neuronal differentiation score | ReNCell VM [1]; library: Spectrum | inactive: 0
same | dopaminergic neuron differentiation score | ReNCell VM [2]; library: Spectrum | inactive: 0

# Source: the supplement of paper PMC4635364
